Assay results: ChEMBL document CHEMBL4316593 (Eur J Med Chem, 2019)
The source gives many values for each of these; only a part stands here.

Assays:
Format in all cases: cell-based
Conditions in all cases: U-87MG ATCC
[1] = Inhibition of RTK/PI3K/AKT/mTOR signaling in human U87 cells assessed as down regulation of IER2 gene expression at cytotoxic IC50 measured after 48 hrs relative to control
[2] = Inhibition of RTK/PI3K/AKT/mTOR signaling in human U87 cells assessed as down regulation of HAUS3 gene expression at cytotoxic IC50 measured after 48 hrs relative to control
[3] = Inhibition of RTK/PI3K/AKT/mTOR signaling in human U87 cells assessed as up regulation of SEC63 homolog, protein translocation regulator gene expression at cytotoxic IC50 measured after 48 hrs relative to control
[4] = Inhibition of RTK/PI3K/AKT/mTOR signaling in human U87 cells assessed as up regulation of AK4 gene expression at cytotoxic IC50 measured after 48 hrs relative to control
[5] = Inhibition of RTK/PI3K/AKT/mTOR signaling in human U87 cells assessed as down regulation of C18orf8 gene expression at cytotoxic IC50 measured after 48 hrs relative to control
[6] = Inhibition of RTK/PI3K/AKT/mTOR signaling in human U87 cells assessed as down regulation of OTUD7B gene expression at cytotoxic IC50 measured after 48 hrs relative to control
[7] = Inhibition of RTK/PI3K/AKT/mTOR signaling in human U87 cells assessed as down regulation of KLF6 gene expression at cytotoxic IC50 measured after 48 hrs relative to control
[8] = Inhibition of RTK/PI3K/AKT/mTOR signaling in human U87 cells assessed as down regulation of CPEB4 gene expression at cytotoxic IC50 measured after 48 hrs relative to control
[9] = Inhibition of RTK/PI3K/AKT/mTOR signaling in human U87 cells assessed as down regulation of ZNF431 gene expression at cytotoxic IC50 measured after 48 hrs relative to control
[10] = Inhibition of RTK/PI3K/AKT/mTOR signaling in human U87 cells assessed as up regulation of cortexin 1 gene expression at cytotoxic IC50 measured after 48 hrs relative to control
[11] = Inhibition of RTK/PI3K/AKT/mTOR signaling in human U87 cells assessed as up regulation of PHGDH gene expression at cytotoxic IC50 measured after 48 hrs relative to control
[12] = Inhibition of RTK/PI3K/AKT/mTOR signaling in human U87 cells assessed as down regulation of SF3B4 gene expression at cytotoxic IC50 measured after 48 hrs relative to control
[13] = Inhibition of RTK/PI3K/AKT/mTOR signaling in human U87 cells assessed as up regulation of RAB3D, member RAS oncogene family gene expression at cytotoxic IC50 measured after 48 hrs relative to control
[14] = Inhibition of RTK/PI3K/AKT/mTOR signaling in human U87 cells assessed as up regulation of TSPAN14 gene expression at cytotoxic IC50 measured after 48 hrs relative to control
[15] = Inhibition of RTK/PI3K/AKT/mTOR signaling in human U87 cells assessed as down regulation of ASF1B gene expression at cytotoxic IC50 measured after 48 hrs relative to control
[16] = Inhibition of RTK/PI3K/AKT/mTOR signaling in human U87 cells assessed as down regulation of ATP6V1B2 gene expression at cytotoxic IC50 measured after 48 hrs relative to control
[17] = Inhibition of RTK/PI3K/AKT/mTOR signaling in human U87 cells assessed as up regulation of EIF3B gene expression at cytotoxic IC50 measured after 48 hrs relative to control
[18] = Inhibition of RTK/PI3K/AKT/mTOR signaling in human U87 cells assessed as down regulation of ZWINT gene expression at cytotoxic IC50 measured after 48 hrs relative to control
[19] = Inhibition of RTK/PI3K/AKT/mTOR signaling in human U87 cells assessed as down regulation of HSPA1A gene expression at cytotoxic IC50 measured after 48 hrs relative to control
[20] = Inhibition of RTK/PI3K/AKT/mTOR signaling in human U87 cells assessed as down regulation of RYBP gene expression at cytotoxic IC50 measured after 48 hrs relative to control
[21] = Inhibition of RTK/PI3K/AKT/mTOR signaling in human U87 cells assessed as down regulation of CPD gene expression at cytotoxic IC50 measured after 48 hrs relative to control
[22] = Inhibition of RTK/PI3K/AKT/mTOR signaling in human U87 cells assessed as down regulation of RGMA gene expression at cytotoxic IC50 measured after 48 hrs relative to control
[23] = Inhibition of RTK/PI3K/AKT/mTOR signaling in human U87 cells assessed as down regulation of UGT8 gene expression at cytotoxic IC50 measured after 48 hrs relative to control
[24] = Inhibition of RTK/PI3K/AKT/mTOR signaling in human U87 cells assessed as up regulation of TMED4 gene expression at cytotoxic IC50 measured after 48 hrs relative to control
[25] = Inhibition of RTK/PI3K/AKT/mTOR signaling in human U87 cells assessed as down regulation of DNAH3 gene expression at cytotoxic IC50 measured after 48 hrs relative to control
[26] = Inhibition of RTK/PI3K/AKT/mTOR signaling in human U87 cells assessed as down regulation of SNX19 gene expression at cytotoxic IC50 measured after 48 hrs relative to control
[27] = Inhibition of RTK/PI3K/AKT/mTOR signaling in human U87 cells assessed as up regulation of GNG4 gene expression at cytotoxic IC50 measured after 48 hrs relative to control
[28] = Inhibition of RTK/PI3K/AKT/mTOR signaling in human U87 cells assessed as down regulation of SH3BP5 gene expression at cytotoxic IC50 measured after 48 hrs relative to control
[29] = Inhibition of RTK/PI3K/AKT/mTOR signaling in human U87 cells assessed as down regulation of ZNF267 gene expression at cytotoxic IC50 measured after 48 hrs relative to control
[30] = Inhibition of RTK/PI3K/AKT/mTOR signaling in human U87 cells assessed as up regulation of zinc finger protein 146 gene expression at cytotoxic IC50 measured after 48 hrs relative to control
[31] = Inhibition of RTK/PI3K/AKT/mTOR signaling in human U87 cells assessed as down regulation of C3orf38 gene expression at cytotoxic IC50 measured after 48 hrs relative to control
[32] = Inhibition of RTK/PI3K/AKT/mTOR signaling in human U87 cells assessed as up regulation of emopamil binding protein like gene expression at cytotoxic IC50 measured after 48 hrs relative to control
[33] = Inhibition of RTK/PI3K/AKT/mTOR signaling in human U87 cells assessed as down regulation of ATG13 gene expression at cytotoxic IC50 measured after 48 hrs relative to control

CC(=O)C(=NNc1ccccc1C#N)C(C)=O
log2FC [1]: -0.69
log2FC [2]: -1.12
log2FC [3]: 0.999
log2FC [4]: 1.91
log2FC [5]: -0.921
log2FC [6]: -1.05
log2FC [7]: -0.872
log2FC [8]: -1.1
log2FC [9]: -1.65
log2FC [10]: 0.96
log2FC [11]: 0.507
log2FC [12]: -0.541
log2FC [13]: 0.821
log2FC [14]: 0.519
log2FC [15]: -1.5
log2FC [16]: -1.1
log2FC [17]: 0.304
log2FC [18]: -1.31
log2FC [19]: -4.49
log2FC [20]: -1.44
log2FC [21]: -0.623
log2FC [22]: -1.49
log2FC [23]: -0.897
log2FC [24]: 0.491
log2FC [25]: -4.59
log2FC [26]: -0.601
log2FC [27]: 1.91
log2FC [28]: -1.11
log2FC [29]: -1.9
log2FC [30]: 1.02
log2FC [31]: -0.862
log2FC [32]: 0.978
log2FC [33]: -0.49
